Assay results reported in patent US10345295B2, “Device and method for point-of-care diagnostics and antibiotic resistance identification, and applications thereof” (CORNELL UNIVERSITY, priority 2015, dated 2019).
At least one structure is not confirmed: it was looked up by name or label, or the drawing left a doubt.

Test system: attenuated E. coli K12 strain with a kanamycin resistance gene
Assay: colorimetric phenotypic antibiotic susceptibility test (phenol red) in capillary tubes
Assay type: cell-based
Details: bacteria culture incubated in capillary tubes with added antibiotic; LB media, 0.05% phenol red; read at the 4-hour mark
Experimental: According to an embodiment, a colorimetric phenotypic testing approach was utilized to assess the antibiotic susceptibility of an attenuated E. coli K12 strain. The pH indicator phenol red was used to provide a phenotypic indication of bacterial growth. For colorimetric phenotypic testing approach, bacterial growth tests were conducted with small sample volumes in a PDMS microchip. The E. coli strain with a kanamycin resistance gene as a selection marker was first streaked and incubated overnight on LB agar plates containing kanamycin. Single colonies were subsequently picked and propagated in liquid bulk culture. Following overnight bulk culture to stationary phase, small volumes (˜1 μL) of culture were separately incubated on the PDMS chip in wells each containing a 19 μL mixture of fresh LB media, 0.05% phenol red, and the antibiotics kanamycin (control) and ampicillin (test). The metabolic activity of viable bacteria leads to an accumulation of organic acids in the growth media, which causes the phenol red to change in color from red to yellow, which is expected for the control group as the E. coli stain is kanamycin resistant.
A similar experiment was conducted by incubating the bacteria culture in capillary tubes designed to hold microliters of liquid. […]

NC[C@H]1O[C@H](O[C@H]2[C@H](O)[C@@H](O[C@H]3O[C@H](CO)[C@@H](O)[C@H](N)[C@H]3O)[C@H](N)C[C@@H]2N)[C@H](O)[C@@H](O)[C@@H]1O [kanamycin]
color change of phenol red pH indicator (phenotypic indication of bacterial growth): significant color change
